# Laboratory results: PubChem BioAssay AID1224830 (NIAID, 2016)
# Aim: 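Regulators of TLR4 signalling towards TNF-alpha in macrophage-like cells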 (primary screen)
# Cell system: human THP-1 monocytic leukaemia cells, TNF dual-luciferase reporter clone, PMA-differentiated to macrophage-like cells
# Reagents: siRNA pool against human genes, 50 nM
# Timing: LPS for 4 h, given about 3 days after siRNA transfection
# Treatment: bacterial LPS (TLR4 ligand), 10 ng/ml
# Detection: 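Ratio of firefly to renilla light, scaled to the plate median and expressed as a robust z-score per replicate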
# Scale: TNF reporter robust z-score: higher = stronger TNF reporter response to LPS
# Call rule: 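a well is active when its z-score exceeds 2.8 or falls below -1.5; control wells carry no call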
# The deposit covers about 18,000 reagents; below is a random part of them. In the full data, about 2,900 (16%) were called active. 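Calls are made per well; low scores hint the gene aids the LPS response, high scores that it dampens it.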 Repeated entries: four replicate wells of each siRNA pool.
target,TNF reporter robust z-score,outcome
PRDM9,0.25,inactive
PRDM9,0,inactive
PRDM9,0.45,inactive
PRDM9,0.09,inactive
FEM1C,0.1,inactive
FEM1C,1.11,inactive
FEM1C,0.6,inactive
FEM1C,-0.51,inactive
INO80B,-0.13,inactive
INO80B,-0.69,inactive
INO80B,-0.97,inactive
INO80B,-0.47,inactive
HDAC10,-0.46,inactive
HDAC10,-0.04,inactive
HDAC10,-0.4,inactive
HDAC10,0.53,inactive
CNKSR3,0.86,inactive
CNKSR3,-0.33,inactive
CNKSR3,-0.47,inactive
CNKSR3,-0.14,inactive

3 entries from above, set out differently.
target | TNF reporter robust z-score | outcome
HDAC10 | -0.04 | inactive
HDAC10 | -0.4 | inactive
HDAC10 | 0.53 | inactive

The results go on:
target,TNF reporter robust z-score,outcome
IFITM1,-0.7,inactive
IFITM1,-0.15,inactive
IFITM1,-0.59,inactive
IFITM1,-0.83,inactive
PYGO2,-0.14,inactive
PYGO2,0.27,inactive
PYGO2,0.01,inactive
PYGO2,0.65,inactive
CNOT4,0.68,inactive
CNOT4,0.64,inactive
CNOT4,0.57,inactive
CNOT4,2.93,active
PHF1,-0.46,inactive
PHF1,0.92,inactive
PHF1,-0.63,inactive
PHF1,-0.02,inactive
HSPA12A,0.04,inactive
HSPA12A,-0.12,inactive
HSPA12A,1.1,inactive
HSPA12A,-0.24,inactive
C3orf18,-1.23,inactive
C3orf18,-1.02,inactive
C3orf18,-1.11,inactive
C3orf18,-1.13,inactive
PAN2,0.84,inactive
PAN2,0.01,inactive
PAN2,0.66,inactive
PAN2,0.08,inactive
